These are yes or no findings as the source states them, for the method shown. In cells and extracts the contact can be indirect. Binding calls can cover weak binding; strength is not graded here.

Chains of the proteins cited; added tags and fusions are not shown. Lines headed by an entry give the natural chain unless they say otherwise; changes in a name come on top.
UniProt Q9Y294: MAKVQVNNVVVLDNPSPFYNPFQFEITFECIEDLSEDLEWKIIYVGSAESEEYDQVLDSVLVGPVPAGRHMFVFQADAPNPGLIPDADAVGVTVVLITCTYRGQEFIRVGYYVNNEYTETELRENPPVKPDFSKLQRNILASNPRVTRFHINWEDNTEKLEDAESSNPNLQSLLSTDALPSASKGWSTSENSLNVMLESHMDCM
UniProt Q504Q3: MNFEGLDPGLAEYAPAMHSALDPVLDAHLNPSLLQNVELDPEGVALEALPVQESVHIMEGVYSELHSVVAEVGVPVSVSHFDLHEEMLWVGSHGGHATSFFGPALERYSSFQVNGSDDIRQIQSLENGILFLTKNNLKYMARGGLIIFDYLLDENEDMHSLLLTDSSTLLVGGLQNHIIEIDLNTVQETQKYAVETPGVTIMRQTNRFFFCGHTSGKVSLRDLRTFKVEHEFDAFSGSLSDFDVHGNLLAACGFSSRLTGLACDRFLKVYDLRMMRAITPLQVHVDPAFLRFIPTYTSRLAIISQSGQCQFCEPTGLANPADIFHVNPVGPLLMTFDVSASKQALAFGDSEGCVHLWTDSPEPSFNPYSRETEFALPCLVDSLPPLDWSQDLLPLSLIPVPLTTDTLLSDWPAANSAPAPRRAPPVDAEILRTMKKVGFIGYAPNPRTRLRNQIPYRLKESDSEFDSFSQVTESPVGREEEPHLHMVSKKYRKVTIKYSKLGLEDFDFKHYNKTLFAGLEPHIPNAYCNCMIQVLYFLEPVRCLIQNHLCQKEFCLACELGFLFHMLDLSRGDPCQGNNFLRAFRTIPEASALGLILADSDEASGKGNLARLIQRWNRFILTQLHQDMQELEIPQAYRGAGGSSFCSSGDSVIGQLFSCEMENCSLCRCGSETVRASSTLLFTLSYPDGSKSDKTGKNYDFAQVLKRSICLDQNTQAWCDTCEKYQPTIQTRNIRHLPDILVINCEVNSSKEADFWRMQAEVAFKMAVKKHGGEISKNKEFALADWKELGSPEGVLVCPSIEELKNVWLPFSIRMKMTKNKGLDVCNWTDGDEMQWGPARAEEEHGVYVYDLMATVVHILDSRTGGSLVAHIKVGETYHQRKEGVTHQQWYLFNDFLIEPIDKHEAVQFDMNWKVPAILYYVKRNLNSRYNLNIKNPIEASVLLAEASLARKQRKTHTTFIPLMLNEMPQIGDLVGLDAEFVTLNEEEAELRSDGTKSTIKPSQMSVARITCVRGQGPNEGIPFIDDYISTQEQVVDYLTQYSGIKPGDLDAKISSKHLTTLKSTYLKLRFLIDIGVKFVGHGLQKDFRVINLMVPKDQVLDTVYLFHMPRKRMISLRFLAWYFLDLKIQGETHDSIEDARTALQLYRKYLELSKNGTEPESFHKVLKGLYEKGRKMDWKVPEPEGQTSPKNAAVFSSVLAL

The target of the assay is FLAG-ASF1A (HeLa cells stably expressing) (UniProt Q9Y294). Nature of the assay: co-IP; precipitation by FLAG-ASF1A from cells expressing USP52 deletion mutants (Supplementary Fig. 3a; in vivo deubiquitination assay: RIPA buffer, anti-FLAG affinity gel).

As to “UCH domain deficient USP52 (USP52/ΔUCH) (from UniProt Q504Q3) (enzyme)”, the binding result is “binds”.

The values are drawn from PMC5876348.
